PubChem BioAssay AID2685 (National Center for Advancing Translational Sciences (NCATS), 2010)
The other results are listed elsewhere or left out. These are further read-outs of the screen, such as a control signal, another cell line or another target. No call is given for them. Most of these compounds were active or inconclusive in the main read-out, so they are no random draw. Words in brackets tell the shape of the fitted curve; partial curves, single points and poor fits give uncertain potencies.

Assay: qHTS Assay for Lipid Storage Modulators in Drosophila S3 Cells;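 for cell number change: cells counted by Cell Tracker Red CMTPX staining in the red channel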
Conditions: BODIPY lipid droplet fluorescence, 18-24 h; for cell number change: measured here: cell count max response, cells fed with added oleic acid
How it was run: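 Drosophila S3 cells got compounds at several concentrations plus oleic acid (400 uM solution). Laser-scanning cytometry with 488 nm excitation read lipid droplets at 500-530 nm and cells at 575-640 nm. Percent activity was relative to 20 uM Triacsin C.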

[1] = measured here: lipid fluorescence (Fed channel) AC50, cells fed with added oleic acid
[2] = measured here: cell number channel AC50, cells fed with added oleic acid

Row | Compound | cell number change [%] | AC50 [1] | AC50 [2]
1 | Cc1ccc(S(=O)(=O)N(CC(=O)N=Nc2c(O)[nH]c3ccccc23)c2ccc(C)c(C)c2)cc1 | 8.68 | 2.59 µM [rising, single point] | 
2 | CC(=O)Nc1ccc(N(CC(=O)NC2CCCC2)C(=O)CCC(=O)Nc2cc(C)on2)cc1 | 7.66 |  | 
3 | CCOc1ccc(NC(=O)CN2CCCC2c2cccs2)cc1S(=O)(=O)N1CCCC1 (stereo unspecified) | -7.25 | 5.17 µM [falling, full curve] | 
4 | CCc1ccc(NC(=O)CSc2nc3ccccc3c(=O)n2CCCC(=O)N2CCCC2)cc1 | 83.5 | 1.84 µM [rising, full curve] | 1.46 µM [rising, full curve]
5 | CCOC(=O)C1=C(C)NC(=O)NC1c1ccc(C)o1 (stereo unspecified) | 2.78 | 0.164 µM [rising, full curve, poor fit] | 
6 | CC(C)(C)c1ccc(OC(=O)c2ccccc2)cc1 | 13 | 29.1 µM [falling, single point] | 
7 | Cc1cc(=O)oc2cc(OC(=O)CCN3C(=O)c4ccccc4C3=O)ccc12 | -22.9 |  | 
8 | COc1ccc(Br)cc1C1Nc2cccc3cccc(c23)N1 | -43.8 | 29.1 µM [falling, single point] | 25.9 µM [falling, partial curve, poor fit]
9 | CC(C)(C)c1ccc(C(=O)NC(=S)NCc2cccnc2)cc1 | -62.7 | 25.9 µM [falling, partial curve] | 18.4 µM [falling, partial curve]
10 | CCN(CC)C(=O)CSc1nnc(-c2c[nH]c3ccccc23)o1 | -29.6 |  | 
11 | O=S(=O)(Cc1ccccc1)c1cnc2ccccc2n1 | 22.1 | 1.3 µM [falling, partial curve] | 
12 | O=C(c1ccc2ccccc2n1)N1CCN(Cc2c(F)cccc2Cl)CC1 | 22.9 |  | 3.66 µM [rising, full curve, poor fit]
13 | COc1cccc(/C=C2\SC(=S)N(C(C)C(=O)NC3C=CS(=O)(=O)C3)C2=O)c1 (stereo unspecified) | 23.3 | 29.1 µM [falling, partial curve, poor fit] | 
14 | CC1CCN(C(=O)C2CCN(S(=O)(=O)c3cccs3)CC2)CC1 | 1.8 |  | 
15 | CC(OC(=O)CN1C(=O)NC2(CCCC2)C1=O)c1ccc(F)cc1 (stereo unspecified) | -11.3 |  | 0.231 µM [falling, full curve, poor fit]
16 | CC(C)CC(=O)N1CCN(C(=O)c2ccco2)CC1 | -21.9 | 32.6 µM [falling, single point] | 
17 | CC(C)c1ccccc1 | -46.6 | 25.9 µM [falling, single point] | 9.2 µM [falling, single point]
18 | CNc1c(NS(=O)(=O)c2ccc(Cl)cc2)c(=O)oc2ccccc12 | 25.7 | 0.58 µM [rising, single point] | 
19 | C/C(N)=C(/C#N)C(=O)COC(=O)CC1CCCC1 | 11.7 |  | 
20 | COc1ccc2nc(Nc3ccccc3)sc2c1 | -31.9 | 0.00461 µM [falling, full curve, poor fit] | 0.0058 µM [falling, full curve, poor fit]
21 | COc1ccc(N2CC(C(=O)Nc3c4c(nn3-c3ccccc3)CS(=O)(=O)C4)CC2=O)cc1 (stereo unspecified) | 19.3 | 32.6 µM [rising, partial curve, poor fit] | 
22 | CC(C)Cc1cc(C(=O)NCc2cccnc2)no1 | 1.41 |  | 
23 | Cc1ccnc(SC2CC(=O)N(c3ccc(Cl)cc3)C2=O)n1 (stereo unspecified) | 32.6 | 9.2 µM [falling, single point] | 32.6 µM [rising, single point]
24 | CCn1c(=O)c(CCC(=O)NCCN2CCOCC2)c(C)c2c(C)nn(-c3ccccc3)c21 | 22.7 |  | 

Row | Compound | cell number change [%] | AC50 [1] | AC50 [2]
25 | Cc1ccccc1Nc1sc(C(=O)Nc2cccc(Cl)c2)c(N)c1C(N)=O | -49.9 | 25.9 µM [falling, partial curve] | 18.4 µM [falling, partial curve]
26 | CN(C)CCCNC(=O)/C(=C\c1ccc(-c2cccc([N+](=O)[O-])c2)o1)NC(=O)c1ccccc1 | 2.58 | 0.82 µM [falling, single point] | 
27 | CCC(C)N(CCNC(=O)c1ccc(NC2=NC3CS(=O)(=O)CC3S2)cc1)Cc1ccco1 (stereo unspecified) | 4.94 |  | 
28 | Cc1cc(C(=O)NNC(=S)NC2CCCCC2)cs1 | 24.9 | 1.46 µM [rising, full curve, poor fit] | 0.00517 µM [rising, full curve, poor fit]
29 | COc1ccccc1CNC(=O)CCC(=O)N1CCOc2ccc(Cl)cc21 | -15.6 |  | 
30 | COc1cccc(CC(=O)OCC(=O)NC2(C#N)CCCCC2)c1 | 4.06 | 25.9 µM [falling, single point] | 
31 | CCC(C)NC(=O)C1CCN(S(=O)(=O)c2cccc3nonc23)CC1 (stereo unspecified) | -32.5 |  | 0.13 µM [falling, full curve, poor fit]
32 | COc1ccc(C)cc1Nc1n[n+](C)c(-c2ccc(O)cc2O)s1 | -7.49 |  | 
33 | CCCCC(CC)C(=O)Nc1ccc(C#N)cc1 (stereo unspecified) | 5.65 | 20.6 µM [rising, single point] | 
34 | CCCCc1ccc(NC(=S)NCCCN2CCOCC2)cc1 | 88.9 | 6.51 µM [falling, single point] | 29.1 µM [rising, single point]
35 | CC1CC2=C(C(=O)O1)C(c1ccccc1)Nc1ccccc1N2 (stereo unspecified) | -1.73 | 0.13 µM [falling, full curve, poor fit] | 
36 | CCCOc1ccc(N2C(=O)CC(NCCNc3ccc(S(=O)(=O)CC)cc3)C2=O)cc1 (stereo unspecified) |  | 6.51 µM [falling, single point] | 
37 | COc1cc(/C=N\NC(=O)CC(=O)NCCc2ccccc2)ccc1O | -7.13 | 20.6 µM [rising, single point] | 
38 | O=C(NCCNC(=O)c1ccccc1F)c1ccco1 | 21.1 | 5.62 µM [falling, single point] | 4.61 µM [rising, single point]
39 | CCC(C)(C)c1ccc(OCCN2C(=O)NC(C)(C)C2=O)cc1 | 66.2 |  | 29.1 µM [rising, single point]
40 | COc1ccc(CNC(=O)C2CCCN(S(=O)(=O)c3c(C)noc3/C=C/N(C)C)C2)cc1 (stereo unspecified) | 5.66 |  | 
41 | CCOC(=O)C1=C(c2ccccc2)O/C(=C(\C(=O)OC)C(F)(F)F)S1 | 48.4 |  | 0.206 µM [rising, full curve, poor fit]
42 | COCCn1c(C)cc(C(=O)COc2nc3ccccc3nc2C)c1C | -29.8 | 1.84 µM [rising, single point] | 
43 | O=C(O)c1cccc2c1C(=O)c1ccccc1-2 | -44.3 | 1.03 µM [falling, full curve, poor fit] | 0.92 µM [falling, full curve, poor fit]
44 | CNC(=O)COC(=O)COc1ccc2c(C)cc(=O)oc2c1 | -48.6 | 0.184 µM [falling, full curve, poor fit] | 
45 | CN(CC(=O)N1CCc2ccccc21)S(=O)(=O)c1cccc2cccnc12 | 30 | 29.1 µM [rising, single point] | 9.2 µM [rising, single point]
46 | COc1ccc(NC(=O)Cc2nnc(SCC(=O)Nc3nccs3)n2C)cc1 | 12.4 |  | 
47 | O=C(NNC(=S)NC1CCCCC1)c1cccs1 | 29 | 16.4 µM [rising, partial curve, poor fit] | 
48 | COCC(=O)NCc1nc2ccccc2[nH]1 | -5.4 | 1.3 µM [falling, partial curve] | 1.84 µM [falling, partial curve, poor fit]

Part of the list above in order of molar mass, falling:
Row | Compound | cell number change [%] | AC50 [1] | AC50 [2]
27 | CCC(C)N(CCNC(=O)c1ccc(NC2=NC3CS(=O)(=O)CC3S2)cc1)Cc1ccco1 (stereo unspecified) | 4.94 |  | 
26 | CN(C)CCCNC(=O)/C(=C\c1ccc(-c2cccc([N+](=O)[O-])c2)o1)NC(=O)c1ccccc1 | 2.58 | 0.82 µM [falling, single point] | 
25 | Cc1ccccc1Nc1sc(C(=O)Nc2cccc(Cl)c2)c(N)c1C(N)=O | -49.9 | 25.9 µM [falling, partial curve] | 18.4 µM [falling, partial curve]
29 | COc1ccccc1CNC(=O)CCC(=O)N1CCOc2ccc(Cl)cc21 | -15.6 |  | 
45 | CN(CC(=O)N1CCc2ccccc21)S(=O)(=O)c1cccc2cccnc12 | 30 | 29.1 µM [rising, single point] | 9.2 µM [rising, single point]
31 | CCC(C)NC(=O)C1CCN(S(=O)(=O)c2cccc3nonc23)CC1 (stereo unspecified) | -32.5 |  | 0.13 µM [falling, full curve, poor fit]
37 | COc1cc(/C=N\NC(=O)CC(=O)NCCc2ccccc2)ccc1O | -7.13 | 20.6 µM [rising, single point] | 
42 | COCCn1c(C)cc(C(=O)COc2nc3ccccc3nc2C)c1C | -29.8 | 1.84 µM [rising, single point] | 
34 | CCCCc1ccc(NC(=S)NCCCN2CCOCC2)cc1 | 88.9 | 6.51 µM [falling, single point] | 29.1 µM [rising, single point]
30 | COc1cccc(CC(=O)OCC(=O)NC2(C#N)CCCCC2)c1 | 4.06 | 25.9 µM [falling, single point] | 
35 | CC1CC2=C(C(=O)O1)C(c1ccccc1)Nc1ccccc1N2 (stereo unspecified) | -1.73 | 0.13 µM [falling, full curve, poor fit] | 
44 | CNC(=O)COC(=O)COc1ccc2c(C)cc(=O)oc2c1 | -48.6 | 0.184 µM [falling, full curve, poor fit] | 
28 | Cc1cc(C(=O)NNC(=S)NC2CCCCC2)cs1 | 24.9 | 1.46 µM [rising, full curve, poor fit] | 0.00517 µM [rising, full curve, poor fit]
47 | O=C(NNC(=S)NC1CCCCC1)c1cccs1 | 29 | 16.4 µM [rising, partial curve, poor fit] | 
38 | O=C(NCCNC(=O)c1ccccc1F)c1ccco1 | 21.1 | 5.62 µM [falling, single point] | 4.61 µM [rising, single point]
33 | CCCCC(CC)C(=O)Nc1ccc(C#N)cc1 (stereo unspecified) | 5.65 | 20.6 µM [rising, single point] | 

Remaining list, next part

Row | Compound | cell number change [%] | AC50 [1] | AC50 [2]
49 | Cn1cccc1/C=N/N1CCN(c2ccccc2)CC1 | 23.6 |  | 
50 | O=C(Cc1cccs1)N1CCN(c2cccc(Cl)c2)CC1 | -8.49 | 0.231 µM [falling, full curve, poor fit] | 
51 | O=C(NC(Cc1ccccc1)c1ccc2c(c1)OCCCO2)c1ccc(F)cc1 (stereo unspecified) | 75.7 |  | 29.1 µM [rising, single point]
52 | CCCCNC(=O)c1onc(CSc2cccc(OC)c2)c1C(=O)O | -24.3 | 29.1 µM [falling, single point] | 
53 | O=C(Nc1ccc2c(c1)OCO2)c1cnn2c(C(F)(F)F)cc(-c3ccco3)nc12 | -3.97 | 0.092 µM [rising, full curve, poor fit] | 
54 | Cc1cc(/C([O-])=C(/C(=S)Nc2ccc(F)cc2)[n+]2ccccc2)c(C)n1-c1ccc(F)cc1 | -27 | 16.4 µM [falling, partial curve, poor fit] | 
55 | COc1ccc(CNc2ccccc2SC)cc1OC | 12 | 0.058 µM [falling, full curve, poor fit] | 
56 | CCOC(=O)c1c(NC(=O)CSc2nnc(N)s2)sc(C)c1-c1ccc(C)cc1 | -25.1 | 23.1 µM [falling, partial curve, poor fit] | 
57 | COc1ccc(/C=C(/NC(=O)c2ccccc2)C(=O)N2CCOCC2)cc1OC | -5.26 |  | 
58 | O=[N+]([O-])c1ccc(N/N=C/c2ccccc2)cc1 | -19.9 | 32.6 µM [falling, single point] | 
59 | COc1ccc(Cl)cc1CSc1ncn[nH]1 | 19.1 | 2.59 µM [rising, partial curve, poor fit] | 
60 | Cc1cc(C)cc(N(CC(=O)NCC2CCCO2)C(=O)CCC(=O)Nc2nccs2)c1 (stereo unspecified) | -14.1 |  | 
61 | CCOC(=O)C1CCN(S(=O)(=O)Cc2ccccc2)C1=O (stereo unspecified) | 6.8 | 1.64 µM [falling, full curve] | 
62 | Nn1c(Cc2cccc3ccccc23)nnc1SCc1c(F)cccc1Cl | 31.9 |  | 2.06 µM [rising, partial curve]
63 | CS(=O)(=O)N1CCC(C(=O)NCc2ccc(Cl)cc2Cl)CC1 | 25.5 |  | 4.11 µM [rising, full curve, poor fit]
64 | COc1ccccc1NC(=O)Nc1cccnc1 | 5.37 | 0.13 µM [falling, full curve, poor fit] | 
65 | CC(=O)c1ccc(Nc2ccc([N+](=O)[O-])c3nonc23)cc1 | -1.47 | 29.1 µM [falling, single point] | 
66 | CCOC(=O)C1CN(S(=O)(=O)c2cccs2)c2ccc(CC(=O)OC)cc2O1 (stereo unspecified) | -32.9 | 1.58 µM [falling, full curve, poor fit] | 1.26 µM [falling, full curve, poor fit]
67 | COc1ccccc1OC(C)C(=O)N1CC(=O)Nc2ccccc21 (stereo unspecified) | 22.2 |  | 
68 | Cc1ccc(S(=O)(=O)O/N=C2/CCCc3occc32)cc1 | 4.74 |  | 0.103 µM [rising, full curve, poor fit]
69 | CN1CCN(C(=S)SCC(=O)N2CCCc3ccccc32)CC1 |  | 16.4 µM [rising, partial curve] | 
70 | CC(=O)O/N=C(/c1nonc1N)N(C)C | -41.9 |  | 29.1 µM [falling, single point]
